Assay [1] concerns the target Protein arginine methyltransferase 1 (PRMT1), Myc-tagged, from pcDNA3.1-Myc-PRMT1 (mouse) (UniProt Q9JIF0). Nature of the assay: co-IP; 293T cells cotransfected with plasmids expressing PRMT1 and C/EBPβ; lysates immunoprecipitated with anti-PRMT1 or anti-C/EBPβ antibody on Dynabeads Protein G, overnight at 4 °C, four washes; Western blot. On the technique in general: In western blotting, separated proteins are transferred to a membrane and probed.

Chains of the proteins cited; added tags and fusions are not shown.
UniProt Q9JIF0: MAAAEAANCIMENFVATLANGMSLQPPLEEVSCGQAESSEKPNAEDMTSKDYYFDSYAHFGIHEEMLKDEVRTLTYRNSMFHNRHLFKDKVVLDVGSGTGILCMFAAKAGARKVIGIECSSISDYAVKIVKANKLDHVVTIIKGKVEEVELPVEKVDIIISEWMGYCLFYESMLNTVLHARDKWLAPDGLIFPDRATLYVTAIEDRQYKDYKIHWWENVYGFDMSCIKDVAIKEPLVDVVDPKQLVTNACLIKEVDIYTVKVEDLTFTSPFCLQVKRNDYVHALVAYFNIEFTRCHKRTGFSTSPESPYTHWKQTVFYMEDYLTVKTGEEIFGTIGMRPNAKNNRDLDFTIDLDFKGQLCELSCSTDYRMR
UniProt P28033: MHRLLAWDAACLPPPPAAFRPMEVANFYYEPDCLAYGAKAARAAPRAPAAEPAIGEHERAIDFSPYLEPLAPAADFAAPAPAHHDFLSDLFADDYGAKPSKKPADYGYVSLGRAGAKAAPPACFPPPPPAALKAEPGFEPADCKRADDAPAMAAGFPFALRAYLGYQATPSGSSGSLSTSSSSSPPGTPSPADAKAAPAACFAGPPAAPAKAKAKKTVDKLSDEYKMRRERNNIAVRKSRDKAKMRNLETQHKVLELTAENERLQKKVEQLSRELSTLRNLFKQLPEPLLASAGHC

Assay [2] addresses Protein arginine methyltransferase 1 (PRMT1), endogenous in 3T3-L1 cells (mouse (endogenous in 3T3-L1)) (UniProt Q9JIF0). Put plainly: co-IP; endogenous proteins; 3T3-L1 cells treated with DMI for 2 days; lysates immunoprecipitated with anti-PRMT1 or anti-C/EBPβ antibody on Dynabeads Protein G, overnight at 4 °C, four washes; Western blot.
Assay [3] addresses CCATT enhancer-binding protein β (C/EBPβ), Flag-tagged, from the plasmid C/EBPβ-Flag (UniProt P28033). Put plainly: co-IP; 293T cells cotransfected with plasmids expressing PRMT1 and C/EBPβ; lysates immunoprecipitated with anti-PRMT1 or anti-C/EBPβ antibody on Dynabeads Protein G, overnight at 4 °C, four washes; Western blot.
Assay [4] concerns the target CCATT enhancer-binding protein β (C/EBPβ), endogenous in 3T3-L1 cells (mouse (endogenous in 3T3-L1)) (UniProt P28033). Put plainly: co-IP; endogenous proteins; 3T3-L1 cells treated with DMI for 2 days; lysates immunoprecipitated with anti-PRMT1 or anti-C/EBPβ antibody on Dynabeads Protein G, overnight at 4 °C, four washes; Western blot.

No constants are given. Whether binding was seen depends on the method and setting. Binding seen in cells or lysates may run through a third protein. Some entries that bind do so weakly or less than the wild type.

Take “CCATT enhancer-binding protein β (C/EBPβ), Flag-tagged, from the plasmid C/EBPβ-Flag (from UniProt P28033 1-296)”: in assay [1], the binding entry is listed as “binds”.

With “CCATT enhancer-binding protein β (C/EBPβ), endogenous in 3T3-L1 cells (from UniProt P28033 1-296)”, in assay [2], the binding result is “binds”. With “Protein arginine methyltransferase 1 (PRMT1), Myc-tagged, from pcDNA3.1-Myc-PRMT1 (from UniProt Q9JIF0 1-371) (enzyme)”, the binding entry in assay [3] is listed as “binds”.

As to “Protein arginine methyltransferase 1 (PRMT1), endogenous in 3T3-L1 cells (from UniProt Q9JIF0 1-371) (enzyme)”, the binding entry in assay [4] is on record as “binds”.

The values above are taken from publication PMC9425039.
